Some entries share one result that the patent states for a list of compounds.
Tested on: Desulfovibrio desulfuricans (vulgaris) (ATCC 7757)
Assay: Biocidal efficacy against sulfur-reducing bacteria in 0.1 wt % polyacrylamide (colony population analysis, CFU)
Assay type: cell-based
Settings: glutaraldehyde 25 & 500 ppm @ 22° C. & 80° C., 24 hours and beyond
Experimental: Example 1 illustrates the biocidal efficacy of peracetic acid, compared with glutaraldehyde, against a strain of sulfur-reducing bacteria, Desulfovibrio desulfuricans (vulgaris), present in an aqueous solution also containing 0.1 wt % polyacrylamide polymer. A range of peracetic acid and glutaraldehyde concentrations were evaluated for biocidal efficacy: 5, 10, 30, 150 and 300 ppm peracetic acid and 25 and 500 ppm glutaraldehyde.
The dilute aqueous polyacrylamide was prepared using a 50 wt % polyacrylamide solution in water, with the polyacrylamide having an average molecular weight ˜10,000 (Aldrich No. 434949, Sigma-Aldrich, St. Louis, Mo.). The peracetic acid was Vigor Ox® SP-15 antimicrobial agent, containing about 15-17 wt % peracetic acid, 9-11 wt % hydrogen peroxide and 33-38 wt % acetic acid in water (FMC Corporation, Philadelphia, Pa.), and this peracetic acid solution was diluted to 5, 10, 30, 150 and 300 ppm peracetic acid for the various evaluations. The glutaraldehyde used in this Example 1 was a 25 wt % glutaraldehyde solution in water (Sigma-Aldrich No. G4004, Sigma-Aldrich, St. Louis, Mo.), diluted to either 25 or 500 ppm for the evaluations. […]
Peracetic acid and glutaraldehyde were next evaluated for biocidal efficacy against the sulfur-reducing bacterium Desulfovibrio vulgaris. […]

O=CCCCC=O [Glutaraldehyde, glutaraldehyde, reference compound]
reduction of the Desulfovibrio vulgaris bacterium (colony population analysis): > 99.99%

Source: patent US9018142B2, “Oil-field biocide method utilizing a peracid” (PeroxyChem LLC, priority 2008, dated 2015)
